This is an account of results in publication PMC9181159, “High Nitric Oxide Concentration Inhibits Photosynthetic Pigment Biosynthesis by Promoting the Degradation of Transcription Factor HY5 in Tomato”.

The data set addresses T1, HY5 (LONG HYPOCOTYL 5) (Solanum lycopersicum) (UniProt Q9SM50).
T1 sequence (looked up): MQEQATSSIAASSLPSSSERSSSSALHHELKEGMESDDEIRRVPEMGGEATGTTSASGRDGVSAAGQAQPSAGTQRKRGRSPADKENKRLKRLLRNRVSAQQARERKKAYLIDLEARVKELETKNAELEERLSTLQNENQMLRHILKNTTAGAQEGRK
As to the kind of experiment: EMSA. The conditions noted are these: 250 uM GSNO; LightShift Chemiluminescent EMSA Kit, 20 min at room temperature, 6% native polyacrylamide gel; salt and pH not stated; recombinant protein; residues 1-158; protein details: His (pET-32a fusion); label: biotin 3' end. For orientation: Mobility shift assays separate free from complexed probe on a gel.

Construct, isoform or probe ends are uncertain for at least one entry. Weaker means in comparison with the reference protein, sequence or condition of that experiment. Protein sequences can lack the tags named with them.

On to “CAAAATGCAACACGTGATGTATGAAT (double strand) [PORC-wt probe]”, for which the binding result is given as “binds more weakly”.

As for “CTGTGATTTACACGTGTCCTCTTTAT (double strand) [PSY2-wt probe]”, the binding result is “binds more weakly”.
